Measurements published in the supplement of paper PMC10849652.
The list shows a part of the results.

Sequences of proteins named here, by UniProt entry; tags and fusion partners are left off. A change or cut given only in a name is not applied to a line headed by its entry.
UniProt Q9HB19: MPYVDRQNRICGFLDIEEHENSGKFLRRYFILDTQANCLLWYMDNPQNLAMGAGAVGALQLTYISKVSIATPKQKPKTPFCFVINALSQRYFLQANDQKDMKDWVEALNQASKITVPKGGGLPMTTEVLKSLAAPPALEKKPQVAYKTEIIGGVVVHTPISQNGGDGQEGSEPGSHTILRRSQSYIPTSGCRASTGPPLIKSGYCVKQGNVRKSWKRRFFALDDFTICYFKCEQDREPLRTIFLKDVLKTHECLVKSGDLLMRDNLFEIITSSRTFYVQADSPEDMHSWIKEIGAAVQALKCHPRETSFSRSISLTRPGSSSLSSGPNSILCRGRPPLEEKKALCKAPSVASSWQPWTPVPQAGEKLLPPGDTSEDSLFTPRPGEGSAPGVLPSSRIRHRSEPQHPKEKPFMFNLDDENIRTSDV
UniProt Q9UPP1: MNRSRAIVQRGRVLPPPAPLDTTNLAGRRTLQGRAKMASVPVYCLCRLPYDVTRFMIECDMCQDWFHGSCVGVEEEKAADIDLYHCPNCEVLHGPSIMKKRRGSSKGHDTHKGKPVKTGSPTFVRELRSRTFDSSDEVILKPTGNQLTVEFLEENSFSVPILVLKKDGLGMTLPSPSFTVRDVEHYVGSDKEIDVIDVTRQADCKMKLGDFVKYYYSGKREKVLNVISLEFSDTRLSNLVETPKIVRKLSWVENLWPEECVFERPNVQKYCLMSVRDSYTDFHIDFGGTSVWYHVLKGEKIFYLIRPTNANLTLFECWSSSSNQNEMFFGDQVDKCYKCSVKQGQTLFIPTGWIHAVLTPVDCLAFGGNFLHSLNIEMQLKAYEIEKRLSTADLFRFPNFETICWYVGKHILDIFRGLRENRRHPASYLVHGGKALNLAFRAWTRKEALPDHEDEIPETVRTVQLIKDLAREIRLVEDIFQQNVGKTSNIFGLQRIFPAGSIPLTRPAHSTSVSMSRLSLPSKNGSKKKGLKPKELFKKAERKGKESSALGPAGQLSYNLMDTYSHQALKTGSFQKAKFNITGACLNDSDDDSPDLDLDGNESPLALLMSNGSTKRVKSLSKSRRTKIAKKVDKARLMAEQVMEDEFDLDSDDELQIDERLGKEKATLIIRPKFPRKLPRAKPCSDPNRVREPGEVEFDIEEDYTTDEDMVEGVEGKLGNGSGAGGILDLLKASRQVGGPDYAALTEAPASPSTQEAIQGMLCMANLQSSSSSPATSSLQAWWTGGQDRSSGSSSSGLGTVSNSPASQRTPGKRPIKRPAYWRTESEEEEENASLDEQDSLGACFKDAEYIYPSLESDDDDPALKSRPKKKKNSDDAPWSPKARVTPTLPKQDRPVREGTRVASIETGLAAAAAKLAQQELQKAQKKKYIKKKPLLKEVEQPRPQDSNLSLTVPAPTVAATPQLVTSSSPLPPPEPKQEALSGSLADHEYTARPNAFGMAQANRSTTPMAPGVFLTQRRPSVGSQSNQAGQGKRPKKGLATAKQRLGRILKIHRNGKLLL
UniProt Q15149: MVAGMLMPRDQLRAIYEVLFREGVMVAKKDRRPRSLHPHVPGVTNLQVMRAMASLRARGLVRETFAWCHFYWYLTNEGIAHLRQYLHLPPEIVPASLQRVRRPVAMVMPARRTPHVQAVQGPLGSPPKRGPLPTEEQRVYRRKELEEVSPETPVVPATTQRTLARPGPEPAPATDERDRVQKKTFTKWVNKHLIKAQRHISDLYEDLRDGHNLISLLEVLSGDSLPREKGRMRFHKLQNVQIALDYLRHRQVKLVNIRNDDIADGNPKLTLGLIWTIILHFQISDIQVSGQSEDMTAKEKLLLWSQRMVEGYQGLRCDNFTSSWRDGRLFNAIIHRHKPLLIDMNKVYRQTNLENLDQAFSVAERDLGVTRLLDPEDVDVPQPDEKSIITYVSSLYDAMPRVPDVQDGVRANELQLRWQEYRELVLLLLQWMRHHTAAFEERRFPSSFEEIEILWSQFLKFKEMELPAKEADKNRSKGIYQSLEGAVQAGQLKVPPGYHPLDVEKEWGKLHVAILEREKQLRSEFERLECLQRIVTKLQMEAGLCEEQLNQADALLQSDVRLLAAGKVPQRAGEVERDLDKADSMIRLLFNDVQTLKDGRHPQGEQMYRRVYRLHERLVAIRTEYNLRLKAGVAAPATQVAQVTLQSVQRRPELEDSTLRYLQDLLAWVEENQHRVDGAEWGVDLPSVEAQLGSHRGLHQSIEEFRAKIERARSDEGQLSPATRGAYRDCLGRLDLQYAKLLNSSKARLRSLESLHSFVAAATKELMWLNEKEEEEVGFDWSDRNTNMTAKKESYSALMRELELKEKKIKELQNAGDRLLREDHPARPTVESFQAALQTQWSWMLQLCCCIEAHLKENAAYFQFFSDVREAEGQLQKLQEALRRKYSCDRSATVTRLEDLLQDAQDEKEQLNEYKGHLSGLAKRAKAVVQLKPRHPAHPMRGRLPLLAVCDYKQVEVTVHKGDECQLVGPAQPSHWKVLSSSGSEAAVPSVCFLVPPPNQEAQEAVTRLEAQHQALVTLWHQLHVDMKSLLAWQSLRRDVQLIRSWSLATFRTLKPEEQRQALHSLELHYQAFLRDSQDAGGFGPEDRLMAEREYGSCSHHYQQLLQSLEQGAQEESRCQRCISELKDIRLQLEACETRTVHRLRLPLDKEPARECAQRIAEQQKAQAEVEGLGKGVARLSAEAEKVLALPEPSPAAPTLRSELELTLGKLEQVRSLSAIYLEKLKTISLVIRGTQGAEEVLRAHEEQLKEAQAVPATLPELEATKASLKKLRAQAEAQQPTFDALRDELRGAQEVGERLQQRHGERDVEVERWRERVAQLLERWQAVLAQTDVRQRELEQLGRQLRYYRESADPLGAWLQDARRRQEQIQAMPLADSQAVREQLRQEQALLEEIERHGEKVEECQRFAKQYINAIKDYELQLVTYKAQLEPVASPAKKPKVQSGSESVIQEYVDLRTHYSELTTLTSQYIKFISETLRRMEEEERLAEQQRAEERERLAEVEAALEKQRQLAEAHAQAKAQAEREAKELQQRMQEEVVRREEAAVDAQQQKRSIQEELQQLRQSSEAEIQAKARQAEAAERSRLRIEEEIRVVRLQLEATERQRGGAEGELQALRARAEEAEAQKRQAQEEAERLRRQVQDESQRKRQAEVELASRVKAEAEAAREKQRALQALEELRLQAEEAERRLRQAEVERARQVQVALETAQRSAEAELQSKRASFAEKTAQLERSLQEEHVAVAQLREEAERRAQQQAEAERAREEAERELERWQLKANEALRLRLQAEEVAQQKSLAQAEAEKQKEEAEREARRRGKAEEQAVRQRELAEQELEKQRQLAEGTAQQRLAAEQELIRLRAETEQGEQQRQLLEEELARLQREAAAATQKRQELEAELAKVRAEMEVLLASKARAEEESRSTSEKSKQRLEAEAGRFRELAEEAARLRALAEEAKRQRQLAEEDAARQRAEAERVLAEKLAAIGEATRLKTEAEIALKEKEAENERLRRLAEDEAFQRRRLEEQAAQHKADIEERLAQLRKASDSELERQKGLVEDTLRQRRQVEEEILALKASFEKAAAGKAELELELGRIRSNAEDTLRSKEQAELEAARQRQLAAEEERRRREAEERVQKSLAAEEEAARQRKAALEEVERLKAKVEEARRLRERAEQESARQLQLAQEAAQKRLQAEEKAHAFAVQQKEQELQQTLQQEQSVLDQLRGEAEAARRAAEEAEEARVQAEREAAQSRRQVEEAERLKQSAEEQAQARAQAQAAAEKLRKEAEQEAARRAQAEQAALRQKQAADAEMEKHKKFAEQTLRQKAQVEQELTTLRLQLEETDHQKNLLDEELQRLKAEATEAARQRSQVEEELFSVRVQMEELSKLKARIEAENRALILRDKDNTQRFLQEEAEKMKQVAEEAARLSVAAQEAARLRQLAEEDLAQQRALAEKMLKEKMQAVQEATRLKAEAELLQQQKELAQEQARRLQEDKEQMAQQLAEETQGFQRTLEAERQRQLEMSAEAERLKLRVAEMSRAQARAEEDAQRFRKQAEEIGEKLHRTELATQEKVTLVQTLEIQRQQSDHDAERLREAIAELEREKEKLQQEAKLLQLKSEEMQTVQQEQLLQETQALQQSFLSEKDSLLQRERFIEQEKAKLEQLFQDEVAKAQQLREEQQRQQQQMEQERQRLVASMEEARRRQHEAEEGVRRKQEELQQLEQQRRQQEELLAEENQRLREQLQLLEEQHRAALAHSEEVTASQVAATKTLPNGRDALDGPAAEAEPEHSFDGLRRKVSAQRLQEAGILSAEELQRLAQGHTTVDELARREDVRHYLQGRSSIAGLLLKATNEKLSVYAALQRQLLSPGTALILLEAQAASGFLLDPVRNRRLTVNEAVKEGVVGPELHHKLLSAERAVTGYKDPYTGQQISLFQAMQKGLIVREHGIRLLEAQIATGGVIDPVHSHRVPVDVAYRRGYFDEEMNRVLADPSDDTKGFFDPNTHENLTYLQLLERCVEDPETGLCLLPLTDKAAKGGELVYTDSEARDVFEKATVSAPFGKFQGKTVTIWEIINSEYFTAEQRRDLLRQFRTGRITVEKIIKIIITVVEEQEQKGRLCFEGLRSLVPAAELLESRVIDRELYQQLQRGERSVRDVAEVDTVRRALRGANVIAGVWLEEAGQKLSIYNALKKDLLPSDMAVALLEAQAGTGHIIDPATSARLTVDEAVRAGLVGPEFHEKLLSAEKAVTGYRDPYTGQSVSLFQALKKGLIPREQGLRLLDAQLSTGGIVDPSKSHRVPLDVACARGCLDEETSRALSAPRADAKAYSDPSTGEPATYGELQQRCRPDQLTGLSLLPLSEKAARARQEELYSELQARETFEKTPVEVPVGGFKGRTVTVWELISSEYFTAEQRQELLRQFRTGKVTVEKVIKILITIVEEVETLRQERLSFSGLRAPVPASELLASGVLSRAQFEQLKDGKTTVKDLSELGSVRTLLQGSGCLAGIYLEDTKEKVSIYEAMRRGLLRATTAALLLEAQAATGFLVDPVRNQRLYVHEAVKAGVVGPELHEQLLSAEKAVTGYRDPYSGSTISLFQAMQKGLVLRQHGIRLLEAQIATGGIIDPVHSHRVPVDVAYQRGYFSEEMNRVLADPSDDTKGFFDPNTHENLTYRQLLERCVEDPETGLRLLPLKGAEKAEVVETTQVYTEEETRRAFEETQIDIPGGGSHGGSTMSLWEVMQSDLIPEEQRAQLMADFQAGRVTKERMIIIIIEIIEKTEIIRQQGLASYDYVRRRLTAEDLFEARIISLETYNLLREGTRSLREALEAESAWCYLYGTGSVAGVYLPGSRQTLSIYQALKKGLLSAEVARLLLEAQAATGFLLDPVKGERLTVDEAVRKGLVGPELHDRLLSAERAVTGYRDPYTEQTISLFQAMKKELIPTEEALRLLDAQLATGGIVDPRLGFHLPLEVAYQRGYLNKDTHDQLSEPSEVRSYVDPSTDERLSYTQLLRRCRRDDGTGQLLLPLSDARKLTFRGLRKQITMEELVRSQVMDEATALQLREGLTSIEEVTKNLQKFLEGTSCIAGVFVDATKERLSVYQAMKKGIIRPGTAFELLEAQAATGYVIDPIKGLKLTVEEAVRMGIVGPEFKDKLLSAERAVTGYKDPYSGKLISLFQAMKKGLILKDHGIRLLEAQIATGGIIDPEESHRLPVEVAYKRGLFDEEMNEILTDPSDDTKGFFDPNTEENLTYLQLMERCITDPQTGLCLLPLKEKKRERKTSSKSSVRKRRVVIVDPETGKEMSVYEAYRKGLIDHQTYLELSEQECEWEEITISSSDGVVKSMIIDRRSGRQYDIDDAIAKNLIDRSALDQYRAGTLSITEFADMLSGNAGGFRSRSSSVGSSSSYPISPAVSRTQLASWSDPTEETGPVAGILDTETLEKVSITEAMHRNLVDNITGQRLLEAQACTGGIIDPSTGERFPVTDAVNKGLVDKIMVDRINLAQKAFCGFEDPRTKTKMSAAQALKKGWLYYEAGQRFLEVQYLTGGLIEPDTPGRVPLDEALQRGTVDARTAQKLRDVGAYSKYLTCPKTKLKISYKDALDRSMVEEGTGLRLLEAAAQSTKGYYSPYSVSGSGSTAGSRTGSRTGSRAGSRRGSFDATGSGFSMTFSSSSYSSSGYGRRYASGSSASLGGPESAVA
UniProt P07205: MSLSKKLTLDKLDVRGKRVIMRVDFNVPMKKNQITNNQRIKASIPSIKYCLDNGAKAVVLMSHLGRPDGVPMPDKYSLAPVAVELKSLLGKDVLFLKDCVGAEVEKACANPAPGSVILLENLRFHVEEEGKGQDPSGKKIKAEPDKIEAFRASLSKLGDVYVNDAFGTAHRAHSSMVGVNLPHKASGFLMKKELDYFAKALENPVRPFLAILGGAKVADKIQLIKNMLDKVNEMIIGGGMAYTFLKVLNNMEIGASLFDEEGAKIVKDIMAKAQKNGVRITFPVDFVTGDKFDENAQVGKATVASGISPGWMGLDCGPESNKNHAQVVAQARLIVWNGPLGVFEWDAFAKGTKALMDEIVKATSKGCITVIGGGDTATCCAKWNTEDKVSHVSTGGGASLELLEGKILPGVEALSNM

Tests used:
Experiment in all cases: log2 fold change, soluble protein after heating vs DMSO (PISA); higher = thermal stabilisation; K562 lysate, 10 uM; active = over 0.2 and 3.5 SD of the protein, either way, in both replicates (recomputed)
alvocidib = compound: CN1CC[C@H](c2c(O)cc(O)c3c(=O)cc(-c4ccccc4Cl)oc23)[C@H](O)C1 [alvocidib]
Method in brief: (§1)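 Pellets of K562 cells were dounce-homogenised in PBS pH 7.4 with 1 mM MgCl2, and the crude extract was held at 1 mg/mL protein for a 30 min treatment with 10 μM compound. Aliquots were heated for 3 min over 48°C-58°C and pooled before NP-40 was added to 0.5% at 4°C. The supernatant from 21,000xg for 90 min was quantified by TMTpro 16plex LC-MS/MS with channel sums equalised. Values are reported from duplicates as log-two fold change in thermal stability relative to solvent controls.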

Tubastatin A = compound: CN1CCc2c(c3ccccc3n2Cc2ccc(C(=O)NO)cc2)C1 [Tubastatin A]
Method in brief: as §1

[1] = compound: CNC(=O)C1=CC=CC=C1NC2=NC(=NC=C2Cl)NC3=C(C=C(C=C3)N4CCOCC4)OC
Method in brief: as §1

defactinib = compound: CNC(=O)c1ccc(Nc2ncc(C(F)(F)F)c(NCc3nccnc3N(C)S(C)(=O)=O)n2)cc1 [defactinib]
Method in brief: as §1

[2] = compound: CNc1nc(-c2ccc3c(N)n[nH]c3c2)cc(N2C[C@@H](C(=O)NC3CCCCC3)CC[C@H]2C)n1
Method in brief: as §1

encorafenib = compound: COC(=O)N[C@@H](C)CNc1nccc(-c2cn(C(C)C)nc2-c2cc(Cl)cc(NS(C)(=O)=O)c2F)n1 [encorafenib]
Method in brief: as §1

[3] = compound: COC(=O)[C@H](CCSC)NC(=O)C1=C(C=C(C=C1)NC[C@H](CS)N)C2=CC=CC=C2
Method in brief: as §1

alisertib = compound: COc1cc(Nc2ncc3c(n2)-c2ccc(Cl)cc2C(c2c(F)cccc2OC)=NC3)ccc1C(=O)O [alisertib]
Method in brief: as §1

[4] = compound: COc1cc2nc(-c3cc(F)ccc3O)nc(N[C@@H]3CNC[C@H]3C(C)(C)O)c2cc1OC
Method in brief: as §1

gefitinib = compound: COc1cc2ncnc(Nc3ccc(F)c(Cl)c3)c2cc1OCCCN1CCOCC1 [gefitinib]
Method in brief: as §1

lapatinib = compound: CS(=O)(=O)CCNCc1ccc(-c2ccc3ncnc(Nc4ccc(OCc5cccc(F)c5)c(Cl)c4)c3c2)o1 [lapatinib]
Method in brief: as §1

pictilisib = compound: CS(=O)(=O)N1CCN(Cc2cc3nc(-c4cccc5[nH]ncc45)nc(N4CCOCC4)c3s2)CC1 [pictilisib]
Method in brief: as §1

crizotinib = compound: C[C@@H](Oc1cc(-c2cnn(C3CCNCC3)c2)cnc1N)c1c(Cl)ccc(F)c1Cl [crizotinib]
Method in brief: as §1

[5] = compound: C[C@H](C1=CC=C(C=C1)C(=O)NC2=C3C=CNC3=NC=C2)N
Method in brief: as §1

duvelisib = compound: C[C@H](Nc1ncnc2nc[nH]c12)c1cc2cccc(Cl)c2c(=O)n1-c1ccccc1 [duvelisib]
Method in brief: as §1

gandotinib = compound: Cc1cc(Nc2cc(CN3CCOCC3)c3nc(C)c(Cc4ccc(Cl)cc4F)n3n2)n[nH]1 [gandotinib]
Method in brief: as §1

tozasertib = compound: Cc1cc(Nc2cc(N3CCN(C)CC3)nc(Sc3ccc(NC(=O)C4CC4)cc3)n2)n[nH]1 [tozasertib]
Method in brief: as §1

doramapimod = compound: Cc1ccc(-n2nc(C(C)(C)C)cc2NC(=O)Nc2ccc(OCCN3CCOCC3)c3ccccc23)cc1 [doramapimod]
Method in brief: as §1

bafetinib = compound: Cc1ccc(NC(=O)c2ccc(CN3CC[C@H](N(C)C)C3)c(C(F)(F)F)c2)cc1Nc1nccc(-c2cncnc2)n1 [bafetinib]
Method in brief: as §1

[6] = compound: Cc1cccc(CC(=O)N2CCc3c2ccc(-c2cn(C)c4ncnc(N)c24)c3F)n1
Method in brief: as §1

Measured: log2 fold change

PHPT1 (UniProt Q9NRX4)
inactive: alvocidib 0.06 | Tubastatin A 0.011 | [1] -0.004 | defactinib -0.038 | [2] -0.034 | encorafenib -0.008 | [3] -0.083 | alisertib -0.011 | [4] -0.007 | gefitinib -0.024 | lapatinib -0.011 | pictilisib 0.003 | crizotinib 0.048 | [5] 0.044 | duvelisib -0.013 | gandotinib -0.026 | tozasertib 0.029 | doramapimod 0.017 | bafetinib 0.02 | [6] -0.063

PLCH1 (UniProt Q4KWH8)
inactive: alvocidib -0.081 | Tubastatin A 0.045 | [1] -0.05 | defactinib 0.023 | [2] -0.169 | encorafenib 0.017 | [3] -0.072 | [4] -0.006 | lapatinib 0.034 | pictilisib 0.01 | crizotinib 0.026 | [5] -0.039 | duvelisib 0.014 | gandotinib -0.1 | tozasertib 0.063 | doramapimod 0.032 | bafetinib -0.029 | [6] 0.104

PI4K2B (UniProt Q8TCG2)
inactive: alvocidib -0.263 | Tubastatin A 0.12 | [1] -0.04 | defactinib -0.081 | [2] -0.057 | encorafenib 0.041 | [3] -0.005 | alisertib -0.068 | [4] -0.011 | gefitinib 0.107 | lapatinib 0.009 | pictilisib 0.039 | crizotinib -0.203 | [5] 0.134 | duvelisib 0.143 | gandotinib 0.041 | tozasertib 0.019 | doramapimod -0.026 | bafetinib -0.017 | [6] 0.003

PHKG1 isoform 2 (UniProt Q16816)
active: [1] 0.929
inactive: alvocidib -0.057 | Tubastatin A 0.053 | defactinib 0.196 | [2] -0.118 | encorafenib 0.123 | [3] -0.078 | alisertib -0.185 | [4] 0.763 | gefitinib 0.202 | lapatinib -0.166 | crizotinib 0.305 | [5] -0.553 | duvelisib -0.042 | gandotinib 0.655 | tozasertib -0.172 | doramapimod 0.038 | [6] 0.216

PIGQ (UniProt Q9BRB3)
inactive: alvocidib -0.009 | defactinib 0.052 | encorafenib 0.212 | [3] -0.199 | [4] -0.027 | lapatinib -0.114 | pictilisib -0.106 | crizotinib -0.064 | [5] -0.056 | gandotinib 0.153 | tozasertib -0.136 | doramapimod 0.119 | bafetinib -0.239 | [6] 0.013

PIGBOS1, A0A0B4J2F0
inactive: alvocidib 0.223 | crizotinib 0.042 | [5] 0.236 | gandotinib -0.197 | doramapimod 0.088 | [6] -0.205

PKMYT1 (UniProt Q99640)
inactive: alvocidib 0.01 | Tubastatin A 0.244 | defactinib 0.045 | [2] -0.06 | encorafenib 0.023 | [3] 0.117 | alisertib -0.067 | gefitinib 0.033 | crizotinib 0.054 | [5] 0.012 | duvelisib 0.003 | gandotinib -0.032 | tozasertib 0.024 | doramapimod 0.101 | [6] 0.028

PIGN (UniProt O95427)
inactive: Tubastatin A 0.091 | [1] 0.073 | defactinib -0.004 | [2] 0.076 | encorafenib 0.034 | [3] -0.01 | [4] 0.089 | lapatinib -0.16 | duvelisib -0.005 | tozasertib 0.116

PLEKHA3 (UniProt Q9HB20)
inactive: alvocidib 0.017 | Tubastatin A -0.079 | [2] 0.019 | alisertib -0.046 | gefitinib 0.269 | crizotinib -0.019 | [5] -0.213 | duvelisib 0.039 | gandotinib 0.029 | doramapimod -0.056 | [6] 0.124

PHLPP1 (UniProt O60346)
inactive: alvocidib 0.028 | Tubastatin A -0.053 | [1] -0.164 | defactinib -0.065 | [2] -0.088 | alisertib 0.026 | gefitinib -0.022 | pictilisib -0.224 | crizotinib -0.008 | [5] 0.021 | duvelisib 0.174 | gandotinib 0.016 | doramapimod 0.045 | bafetinib 0.068 | [6] -0.003

PLCG2 (UniProt P16885)
inactive: alvocidib 0.1 | Tubastatin A -0.102 | [1] -0.151 | defactinib 0.131 | encorafenib 0.051 | [3] 0.038 | alisertib -0.015 | [4] -0.07 | gefitinib 0.021 | lapatinib -0.027 | pictilisib 0.061 | crizotinib 0.046 | [5] -0.369 | gandotinib -0.279 | tozasertib 0.048 | doramapimod -0.069 | bafetinib -0.16 | [6] 0.058

PIMREG (UniProt Q9BSJ6)
inactive: alvocidib -0.205 | Tubastatin A -0.135 | [1] 0.057 | pictilisib -0.15 | crizotinib 0.222 | [5] 0.175 | gandotinib 0.122 | doramapimod 0.184 | bafetinib -0.136 | [6] -0.157

Two neighbouring records from above:
PIGN (UniProt O95427)
inactive: Tubastatin A 0.091 | [1] 0.073 | defactinib -0.004 | [2] 0.076 | encorafenib 0.034 | [3] -0.01 | [4] 0.089 | lapatinib -0.16 | duvelisib -0.005 | tozasertib 0.116

PLEKHA3 (UniProt Q9HB20)
inactive: alvocidib 0.017 | Tubastatin A -0.079 | [2] 0.019 | alisertib -0.046 | gefitinib 0.269 | crizotinib -0.019 | [5] -0.213 | duvelisib 0.039 | gandotinib 0.029 | doramapimod -0.056 | [6] 0.124

Carrying on.

PIAS1 isoform 2 (UniProt O75925)
inactive: alvocidib 0.007 | [1] 0.116 | [2] -0.051 | alisertib 0.094 | gefitinib 0.242 | crizotinib 0.024 | [5] -0.048 | duvelisib 0.064 | gandotinib 0.036 | doramapimod 0.21 | [6] 0.361

PHF12 (UniProt Q96QT6)
inactive: Tubastatin A -0.26

PKP4 (UniProt Q99569)
inactive: alvocidib 0.095 | Tubastatin A -0.277 | [2] 0.042 | encorafenib -0.125 | [3] 0.114 | [5] -0.154 | duvelisib 0.046 | gandotinib 0.026 | tozasertib -0.236 | [6] -0.03

PIGX isoform 2 (UniProt Q8TBF5)
inactive: alvocidib 0.089 | Tubastatin A -0.032 | [2] -0.062 | encorafenib 0.06 | [3] -0.117 | alisertib -0.128 | [4] -0.053 | gefitinib 0.22 | lapatinib -0.117 | pictilisib 0.054 | crizotinib -0.008 | [5] -0.072 | duvelisib 0 | gandotinib 0.056 | tozasertib -0.034 | doramapimod -0.024 | bafetinib -0.039 | [6] 0.028

PLEKHA2 (UniProt Q9HB19)
inactive: alvocidib -0.006 | Tubastatin A -0.089 | [1] 0.011 | [2] 0.086 | alisertib 0.053 | gefitinib -0.044 | pictilisib -0.044 | crizotinib -0.093 | [5] 0.128 | duvelisib -0.103 | gandotinib 0.104 | doramapimod 0.053 | bafetinib -0.03 | [6] -0.051

PIGB (UniProt Q92521)
inactive: alvocidib 0.015 | Tubastatin A -0.029 | defactinib -0.471 | encorafenib 0.11 | [3] 0.089 | pictilisib 0.124 | crizotinib 0.004 | [5] -0.045 | gandotinib 0.021 | tozasertib -0.04 | doramapimod -0.051 | bafetinib -0.058 | [6] -0.006

PHF2 (UniProt O75151)
inactive: Tubastatin A -0.071

PHF8 (UniProt Q9UPP1)
inactive: alvocidib -0.194 | Tubastatin A 0.025 | [1] -0.036 | defactinib -0.096 | encorafenib 0.133 | [3] 0.193 | alisertib 0.106 | gefitinib -0.014 | crizotinib -0.112 | [5] -0.404 | gandotinib 0.11 | tozasertib -0.324 | doramapimod 0.061 | [6] 0.195

PLEC isoform 3 (UniProt Q15149)
inactive: alvocidib 0.135 | defactinib 0.042 | encorafenib -0.216 | [3] -0.047 | pictilisib -0.174 | crizotinib -0.056 | [5] -0.082 | gandotinib -0.225 | tozasertib 0.122 | doramapimod 0.102 | bafetinib -0.127 | [6] -0.005

PGK2 (UniProt P07205)
inactive: alvocidib 0.135 | Tubastatin A 0.078 | defactinib 0.074 | encorafenib 0.002 | [3] 0.303 | [4] -0.312 | lapatinib 0.026 | [5] 0.098 | gandotinib -0.044 | tozasertib 0.292 | [6] -0.045

PIGH (UniProt Q14442)
inactive: alvocidib -0.026 | [1] -0.111 | defactinib 0.013 | [4] 0.03 | lapatinib -0.06 | pictilisib 0.052 | crizotinib 0.066 | [5] -0.05 | gandotinib 0.111 | doramapimod -0.055 | bafetinib -0.069 | [6] 0.032

PLEKHG2 (UniProt Q9H7P9)
inactive: alvocidib -0.095 | [1] 0.084 | [2] 0.141 | encorafenib -0.027 | [3] -0.13 | [5] 0.046 | duvelisib -0.161 | gandotinib -0.017 | tozasertib -0.001 | [6] 0.195

PIK3CD (UniProt O00329)
inactive: alvocidib -0.105 | Tubastatin A 0.012 | [1] 0.021 | defactinib 0.052 | [2] -0.047 | alisertib -0.027 | [4] 0.027 | lapatinib -0.043 | pictilisib 0.142 | crizotinib -0.037 | [5] 0.035 | gandotinib 0.389 | doramapimod 0.03 | bafetinib -0.136 | [6] -0.016
active: duvelisib 0.477
